PubChem BioAssay AID1224829 – NIAID – 2016
Assay: 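Follow-up of TLR4-NF-kappaB regulators using six separate siRNAs for each gene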 (follow-up of hits). Cells: mouse RAW264.7 G9 macrophage reporter cells. Knock-down reagent: single siRNA against mouse genes, 100 nM. Time to read-out: 2 days of siRNA knock-down, then 40 min of LPS before fixing. Challenge: LPS (Salmonella minnesota R595) at 10 ng/ml. Detection: 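High-content images after 40 min LPS exposure; GFP-p65 nucleus to surrounding ring signal ratio, normalised to plate median and non-targeting control wells, expressed as z-score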. Direction: p65 translocation z-score and gene median z-score, per vendor: higher = more nuclear NF-kappaB p65 after LPS. Call rule: 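Active means the replicate-mean z-score lies beyond plus or minus 2, in either direction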. Calls: active = changed p65 translocation (either direction); inactive = no clear change.
Shown is an unselected part of about 3,800 reagents. 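Calls cover raised and lowered translocation; gene median uses one vendor's three siRNAs; qiagen siRNAs acted more weakly than ambion siRNAs.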 The numbers tell different reagents against one gene apart.

no.	gene	reagent no.	siRNA vendor or control pool	p65 translocation z-score, replicate mean	p65 translocation z-score, replicate 1	p65 translocation z-score, replicate 2	gene median z-score, per vendor	activity call
1	Pakap	1	ambion single siRNA	1.62	1.99	1.25	0.491	inactive
2	Pakap	2	ambion single siRNA	-2.25	-2.47	-2.03	0.491	active
3	Pakap	3	ambion single siRNA	1.35	2.97	-0.265	0.491	inactive
4	Pakap	4	qiagen single siRNA	-1.02	-1.24	-0.813	-1.02	inactive
5	Pakap	5	qiagen single siRNA	3.34	2.06	4.62	-1.02	active
6	Pakap	6	qiagen single siRNA	-1.6	-1.55	-1.66	-1.02	inactive
7	Pabpn1	1	ambion single siRNA				-1.48	inactive
8	Pabpn1	2	ambion single siRNA	-2.56	-3.78	-1.35	-1.48	active
9	Pabpn1	3	ambion single siRNA	-1.48	-1.48		-1.48	inactive
10	Pabpn1	4	qiagen single siRNA	-2.53	-1.52	-3.55	-1.65	active
11	Pabpn1	5	qiagen single siRNA	2.33	1.11	3.54	-1.65	active
12	Pabpn1	6	qiagen single siRNA	-3.78	-1.78	-5.79	-1.65	active
13	Vamp1	1	ambion single siRNA	0.384	1.33	-0.561	-1.49	inactive
14	Vamp1	2	ambion single siRNA	-2.8	-3.1	-2.51	-1.49	active
15	Vamp1	3	ambion single siRNA	-1.49	-1	-1.98	-1.49	inactive
16	Vamp1	4	qiagen single siRNA	1.18	-0.794	3.16	-0.49	inactive
17	Vamp1	5	qiagen single siRNA	0.702	-0.726	2.13	-0.49	inactive
18	Vamp1	6	qiagen single siRNA	-0.992	-0.254	-1.73	-0.49	inactive
19	Cks1b	1	ambion single siRNA	-0.0618	-0.0849	-0.0386	-0.884	inactive
20	Cks1b	2	ambion single siRNA				-0.884	inactive
21	Cks1b	3	ambion single siRNA	-1.83	-1.68	-1.98	-0.884	inactive
22	Cks1b	4	qiagen single siRNA	1.98	1.55	2.41	0.174	inactive
23	Cks1b	5	qiagen single siRNA	-0.352	0.174	-0.877	0.174	inactive
24	Cks1b	6	qiagen single siRNA	-3.29	-3.29		0.174	active
25	Nab1	1	ambion single siRNA	-4	-4.82	-3.17	-2.87	active
26	Nab1	2	ambion single siRNA	-2.18	-1.79	-2.57	-2.87	active
27	Nab1	3	ambion single siRNA	-2.05	-0.715	-3.38	-2.87	active
28	Nab1	4	qiagen single siRNA	-0.992	-0.875	-1.11	-1.37	inactive
29	Nab1	5	qiagen single siRNA	0.35	-1.62	2.32	-1.37	inactive
30	Nab1	6	qiagen single siRNA	-3.77	-4.27	-3.27	-1.37	active
31	2900005J15Rik	1	ambion single siRNA	0.0802	-1.16	1.32	-0.846	inactive
32	2900005J15Rik	2	ambion single siRNA	-1.04	-0.529	-1.55	-0.846	inactive
33	2900005J15Rik	3	ambion single siRNA	-1.32	0.338	-2.97	-0.846	inactive
34	2900005J15Rik	4	qiagen single siRNA	0.414	1.14	-0.315	1.24	inactive
35	2900005J15Rik	5	qiagen single siRNA	2.04	1.34	2.74	1.24	active
36	2900005J15Rik	6	qiagen single siRNA	1.03	0.449	1.6	1.24	inactive
37	Ptprn2	1	ambion single siRNA	-1.84	-0.801	-2.89	-1.78	inactive
38	Ptprn2	2	ambion single siRNA	-0.116	-0.216	-0.0167	-1.78	inactive
39	Ptprn2	3	ambion single siRNA	-2.86	-2.96	-2.75	-1.78	active
40	Ptprn2	4	qiagen single siRNA	0.959	0.429	1.49	1.34	inactive
41	Ptprn2	5	qiagen single siRNA	2.41	1.34	3.47	1.34	active
42	Ptprn2	6	qiagen single siRNA	-5.89	-5.89		1.34	active
43	Ifi204	1	ambion single siRNA	0.0138	0.212	-0.185	-1.5	inactive
44	Ifi204	2	ambion single siRNA	-3.09	-4.18	-2	-1.5	active
45	Ifi204	3	ambion single siRNA	-1.72	-2.45	-0.992	-1.5	inactive
46	Ifi204	4	qiagen single siRNA	0.726	-0.906	2.36	-0.315	inactive
47	Ifi204	5	qiagen single siRNA	2.2	-0.315	4.71	-0.315	active
48	Ifi204	6	qiagen single siRNA	-1.74	-1.74		-0.315	inactive
49	Krt79	1	ambion single siRNA	0.228	0.86	-0.405	0.86	inactive
50	Krt79	2	ambion single siRNA	2.75	2.16	3.34	0.86	active
51	Krt79	3	ambion single siRNA	-1.75	-1.75		0.86	inactive
52	Krt79	4	qiagen single siRNA	1.17	0.321	2.01	0.857	inactive
53	Krt79	5	qiagen single siRNA	0.714	1.39	0.035	0.857	inactive
54	Krt79	6	qiagen single siRNA				0.857	inactive
